In this assay the target is K560-GFP with C-terminal Strep-tag, purified (human) (UniProt P33176). The assay can be described thus: single-molecule TIRF reconstitution (cotransport on microtubules); dual-color imaging of K560-GFP and labeled MAP on dynamic MTs grown from GMPCPP seeds; MRB80 with 50 mM KCl, 2 mM ATP, 30°C; both purified.

By UniProt entry, the sequences of proteins in these tests, tags left out. Residues count along the entry.
UniProt P33176, residues 1-560: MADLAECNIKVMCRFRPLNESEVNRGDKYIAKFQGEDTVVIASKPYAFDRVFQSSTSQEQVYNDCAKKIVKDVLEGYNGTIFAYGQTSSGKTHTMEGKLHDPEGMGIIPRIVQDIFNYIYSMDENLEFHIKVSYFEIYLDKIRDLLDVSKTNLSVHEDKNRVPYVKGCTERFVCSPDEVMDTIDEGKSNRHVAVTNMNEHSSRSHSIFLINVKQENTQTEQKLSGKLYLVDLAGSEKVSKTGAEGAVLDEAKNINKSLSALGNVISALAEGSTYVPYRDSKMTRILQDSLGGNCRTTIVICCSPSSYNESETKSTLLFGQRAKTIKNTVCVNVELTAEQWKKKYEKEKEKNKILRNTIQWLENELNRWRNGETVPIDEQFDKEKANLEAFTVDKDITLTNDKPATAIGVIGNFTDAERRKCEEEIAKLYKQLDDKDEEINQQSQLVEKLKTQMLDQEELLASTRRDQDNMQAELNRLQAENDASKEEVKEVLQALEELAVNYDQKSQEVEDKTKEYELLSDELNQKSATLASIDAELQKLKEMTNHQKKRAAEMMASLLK

No constants are given. Whether binding was seen depends on the method and setting. Some entries that bind do so weakly or less than the wild type. Where a sequence is shown, tags or fusion partners need not be part of it.

B1: Alexa Fluor 647–labeled SNAP-tag-MAP7D3, full length (protein, UniProt Q8IWC1 1-876)
chain: MMADGAAAGAGGSPSLRELRARMVAAANEIAKERRKQDVVNRVATHSSNIRSTFKPVIDGSMLKNDIKQRLARERREEKRRQQDANKETQLLEKERKTKLQYEKQMEERQRKLKERKEKEEQRRIAAEEKRHQKDEAQKEKFTAILYRTLERRRLADDYQQKRWSWGGSAMANSESKTANKRSASTEKLEQGTSALIRQMPLSSAGLQNSVAKRKTDKERSSSLNRRDSNLHSSTDKEQAERKPRVTGVTNYVMQYVTVPLRKCTSDELRAVMFPMSTMKIPPQTKVEESPLEKVETPPKASVDAPPQVNVEVFCNTSMEASPKAGVGMAPEVSTDSFPVVSVDVSPVVSTYDSEMSMDASPELSIEALPKVDLETVPKVSIVASPEASLEAPPEVSLEALPEVSVEAAPEGSLEAPPKGSAEVAPKESVKGSPKESMEASPEAMVKASPKTSLEASMEASPKAKARDAPKKSEMDKQALIPIAKKRLSSYTECYKWSSSPENACGLPSPISTNRQIQKNCPPSPLPLISKQSPQTSFPYKIMPIQHTLSVQSASSTVKKKKETVSKTTNRCEALSQRHMIYEESGNKSTAGIMNAEAATKILTELRRLAREQREKEEEERQREEMQQRVIKKSKDMAKEAVGGQAEDHLKLKDGQQQNETKKKKGWLDQEDQEAPLQKGDAKIKAQEEADKRKKEHERIMLQNLQERLERKKRIEEIMKRTRKTDVNASKVTETSSHDIYEEAEADNEESDKDSLNEMFPSAILNGTGSPTKFKMPFNNAKKMTHKLVFLEDGTSQVRKEPKTYFNGDLKNFRQKSMKDTSIQEVVSRPSSKRMTSHTTKTRKADETNTTSRSSAQTKSEGFHDILPKSSDTFRQ
modifications: Alexa Fluor 647 on the SNAP-tag
For B1, the binding result is “binds”.

The record behind these values is PMC6446838.
